# Assay results published in article PMC6735508.
# Chains of the proteins cited; added tags and fusions are not shown.
# UniProt P46379: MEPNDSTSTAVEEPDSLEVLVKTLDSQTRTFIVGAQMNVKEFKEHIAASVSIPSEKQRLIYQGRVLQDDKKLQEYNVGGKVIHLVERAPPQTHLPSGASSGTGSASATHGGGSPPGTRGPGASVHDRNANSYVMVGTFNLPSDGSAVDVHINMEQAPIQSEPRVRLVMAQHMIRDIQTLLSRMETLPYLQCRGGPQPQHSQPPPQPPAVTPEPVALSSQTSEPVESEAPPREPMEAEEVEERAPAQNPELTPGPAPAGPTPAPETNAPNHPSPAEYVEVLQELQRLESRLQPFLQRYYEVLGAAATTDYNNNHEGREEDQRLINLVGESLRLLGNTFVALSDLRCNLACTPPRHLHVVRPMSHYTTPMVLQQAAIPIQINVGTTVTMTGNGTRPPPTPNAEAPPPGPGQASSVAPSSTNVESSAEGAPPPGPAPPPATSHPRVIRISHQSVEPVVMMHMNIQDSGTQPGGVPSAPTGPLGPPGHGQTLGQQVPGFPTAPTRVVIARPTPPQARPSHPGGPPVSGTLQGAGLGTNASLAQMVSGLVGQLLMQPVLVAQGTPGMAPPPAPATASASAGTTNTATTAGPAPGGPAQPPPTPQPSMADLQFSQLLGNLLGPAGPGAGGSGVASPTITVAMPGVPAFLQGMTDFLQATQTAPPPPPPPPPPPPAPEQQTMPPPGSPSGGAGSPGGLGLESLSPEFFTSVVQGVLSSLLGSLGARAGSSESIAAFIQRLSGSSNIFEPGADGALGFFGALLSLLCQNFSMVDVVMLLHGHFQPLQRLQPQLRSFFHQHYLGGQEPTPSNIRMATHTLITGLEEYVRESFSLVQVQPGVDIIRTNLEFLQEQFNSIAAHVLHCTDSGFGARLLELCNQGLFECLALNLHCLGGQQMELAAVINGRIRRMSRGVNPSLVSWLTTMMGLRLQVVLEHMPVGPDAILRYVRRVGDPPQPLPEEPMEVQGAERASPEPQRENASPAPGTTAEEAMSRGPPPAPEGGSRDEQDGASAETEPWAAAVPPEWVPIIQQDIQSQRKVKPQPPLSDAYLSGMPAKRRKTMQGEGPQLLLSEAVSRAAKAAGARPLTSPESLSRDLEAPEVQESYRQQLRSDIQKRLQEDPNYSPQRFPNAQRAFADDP
# UniProt Q99816: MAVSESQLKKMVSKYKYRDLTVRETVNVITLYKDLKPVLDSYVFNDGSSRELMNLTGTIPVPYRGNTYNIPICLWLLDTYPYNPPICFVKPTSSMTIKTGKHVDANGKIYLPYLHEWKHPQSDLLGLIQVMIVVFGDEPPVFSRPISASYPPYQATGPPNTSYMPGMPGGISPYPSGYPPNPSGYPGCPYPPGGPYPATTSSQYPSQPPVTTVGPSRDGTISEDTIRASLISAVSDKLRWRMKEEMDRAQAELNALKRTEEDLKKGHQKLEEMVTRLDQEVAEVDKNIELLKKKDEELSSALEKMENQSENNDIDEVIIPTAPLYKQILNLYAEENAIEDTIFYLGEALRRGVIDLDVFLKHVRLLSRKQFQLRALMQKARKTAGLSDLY
# UniProt Q8WUM4: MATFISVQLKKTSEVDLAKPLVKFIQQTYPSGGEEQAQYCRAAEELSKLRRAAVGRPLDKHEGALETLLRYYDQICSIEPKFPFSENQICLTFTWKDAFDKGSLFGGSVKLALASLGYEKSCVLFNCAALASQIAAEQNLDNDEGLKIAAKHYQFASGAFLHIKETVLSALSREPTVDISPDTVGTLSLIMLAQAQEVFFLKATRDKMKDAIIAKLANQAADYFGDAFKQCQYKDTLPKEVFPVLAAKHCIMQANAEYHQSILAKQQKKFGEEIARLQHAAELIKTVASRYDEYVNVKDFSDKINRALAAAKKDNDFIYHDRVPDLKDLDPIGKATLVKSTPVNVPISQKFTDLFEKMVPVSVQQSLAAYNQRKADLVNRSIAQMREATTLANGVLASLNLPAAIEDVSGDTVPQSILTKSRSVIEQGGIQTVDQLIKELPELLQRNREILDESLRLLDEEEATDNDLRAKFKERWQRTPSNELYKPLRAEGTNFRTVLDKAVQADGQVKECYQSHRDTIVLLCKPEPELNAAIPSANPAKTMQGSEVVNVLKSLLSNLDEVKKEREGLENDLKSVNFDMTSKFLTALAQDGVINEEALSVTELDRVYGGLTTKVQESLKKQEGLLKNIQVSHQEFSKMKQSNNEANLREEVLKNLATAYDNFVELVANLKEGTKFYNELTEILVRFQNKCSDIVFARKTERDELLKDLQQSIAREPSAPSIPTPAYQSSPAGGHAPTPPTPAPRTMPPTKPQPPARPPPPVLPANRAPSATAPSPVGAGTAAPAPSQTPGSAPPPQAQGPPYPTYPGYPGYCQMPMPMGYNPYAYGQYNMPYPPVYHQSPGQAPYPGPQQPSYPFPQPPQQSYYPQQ
# UniProt O14964: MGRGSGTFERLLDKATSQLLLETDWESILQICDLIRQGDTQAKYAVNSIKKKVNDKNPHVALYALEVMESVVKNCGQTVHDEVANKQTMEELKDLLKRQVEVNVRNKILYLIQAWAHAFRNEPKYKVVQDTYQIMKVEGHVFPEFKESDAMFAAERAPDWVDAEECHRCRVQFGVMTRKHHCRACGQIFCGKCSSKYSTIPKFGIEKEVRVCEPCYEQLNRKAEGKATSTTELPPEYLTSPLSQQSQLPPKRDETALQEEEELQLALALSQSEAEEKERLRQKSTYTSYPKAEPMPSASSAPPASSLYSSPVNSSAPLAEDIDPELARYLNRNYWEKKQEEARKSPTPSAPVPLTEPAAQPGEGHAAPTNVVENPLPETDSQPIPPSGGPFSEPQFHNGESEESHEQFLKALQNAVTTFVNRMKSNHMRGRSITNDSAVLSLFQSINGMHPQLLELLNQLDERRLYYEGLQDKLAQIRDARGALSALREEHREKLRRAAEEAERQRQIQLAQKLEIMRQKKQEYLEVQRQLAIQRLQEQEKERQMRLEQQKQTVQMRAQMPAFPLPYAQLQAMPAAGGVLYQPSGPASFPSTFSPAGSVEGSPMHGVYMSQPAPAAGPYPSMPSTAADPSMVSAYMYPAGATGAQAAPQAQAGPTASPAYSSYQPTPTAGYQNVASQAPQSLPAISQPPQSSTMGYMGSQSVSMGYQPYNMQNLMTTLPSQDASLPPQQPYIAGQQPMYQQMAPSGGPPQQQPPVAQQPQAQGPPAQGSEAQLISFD
# No constants are given. Whether binding was seen depends on the method and setting. For some of these results: In cells and extracts the contact can be indirect. Some entries that bind do so weakly or less than the wild type.
# Experiments:
# [1] = biological target: Bcl2-associated anthogene 6 (BAG6), endogenous in HEK293 cells (human (endogenous in HEK293)) (UniProt P46379); test: co-IP; endogenous proteins in HEK293 cell lysates, cells untreated or treated with 1 µM doxorubicin (1 h or the indicated time); precipitated with anti-BAG6, anti-p53 or anti-CBP/p300 antibodies and Protein A magnetic beads; immunoblot
# [2] = biological target: TSG101, yeast two-hybrid fusion (UniProt Q99816); test: two-hybrid; pGADT7 and pGBT9 vectors in yeast lines Y2H Gold and Y187, mated; growth on DDO and QDO media
# [3] = biological target: p53, endogenous in HEK293 cells (human (endogenous in HEK293)) (UniProt P04637); test: co-IP; endogenous proteins in HEK293 cell lysates, cells untreated or treated with 1 µM doxorubicin (1 h or the indicated time); precipitated with anti-BAG6, anti-p53 or anti-CBP/p300 antibodies and Protein A magnetic beads; immunoblot
# [4] = biological target: BAG6, in vitro translated (UniProt P46379); test: co-IP; in vitro translated BAG6 and p53 mixed and incubated for 1 h at 25°, then precipitated with anti-BAG6 or anti-p53 antibodies; immunoblot
binding [1],Substance,also measured
binds,"ALIX, endogenous ESCRT protein in HEK293 cells (from UniProt Q8WUM4 1-868)",
,"BAG6, yeast two-hybrid fusion (from UniProt P46379 1-1132)",binding [2]: binds
,"Bcl2-associated anthogene 6 (BAG6), endogenous in HEK293 cells (from UniProt P46379 1-1132)",binding [3]: binds
binds,"HRS, endogenous ESCRT protein in HEK293 cells (from UniProt O14964 1-777)",
binds,"TSG101, endogenous ESCRT protein in HEK293 cells (from UniProt Q99816 1-390)",
binds,"p53, endogenous in HEK293 cells (from UniProt P04637 1-393)",
,"p53, in vitro translated (from UniProt P04637 1-393)",binding [4]: binds
